Measured values taken from the supplement of paper PMC12067093, “Discovery and optimisation of a covalent ligand for TRIM25 and its application to targeted protein ubiquitination” (Chemical Science, 2025).
The list shows a part of the results.

By UniProt entry, the sequences of proteins in these tests, tags left out. Where a name states a change or a piece, a line headed by the entry shows the natural chain unless it says otherwise.
UniProt Q96KQ7: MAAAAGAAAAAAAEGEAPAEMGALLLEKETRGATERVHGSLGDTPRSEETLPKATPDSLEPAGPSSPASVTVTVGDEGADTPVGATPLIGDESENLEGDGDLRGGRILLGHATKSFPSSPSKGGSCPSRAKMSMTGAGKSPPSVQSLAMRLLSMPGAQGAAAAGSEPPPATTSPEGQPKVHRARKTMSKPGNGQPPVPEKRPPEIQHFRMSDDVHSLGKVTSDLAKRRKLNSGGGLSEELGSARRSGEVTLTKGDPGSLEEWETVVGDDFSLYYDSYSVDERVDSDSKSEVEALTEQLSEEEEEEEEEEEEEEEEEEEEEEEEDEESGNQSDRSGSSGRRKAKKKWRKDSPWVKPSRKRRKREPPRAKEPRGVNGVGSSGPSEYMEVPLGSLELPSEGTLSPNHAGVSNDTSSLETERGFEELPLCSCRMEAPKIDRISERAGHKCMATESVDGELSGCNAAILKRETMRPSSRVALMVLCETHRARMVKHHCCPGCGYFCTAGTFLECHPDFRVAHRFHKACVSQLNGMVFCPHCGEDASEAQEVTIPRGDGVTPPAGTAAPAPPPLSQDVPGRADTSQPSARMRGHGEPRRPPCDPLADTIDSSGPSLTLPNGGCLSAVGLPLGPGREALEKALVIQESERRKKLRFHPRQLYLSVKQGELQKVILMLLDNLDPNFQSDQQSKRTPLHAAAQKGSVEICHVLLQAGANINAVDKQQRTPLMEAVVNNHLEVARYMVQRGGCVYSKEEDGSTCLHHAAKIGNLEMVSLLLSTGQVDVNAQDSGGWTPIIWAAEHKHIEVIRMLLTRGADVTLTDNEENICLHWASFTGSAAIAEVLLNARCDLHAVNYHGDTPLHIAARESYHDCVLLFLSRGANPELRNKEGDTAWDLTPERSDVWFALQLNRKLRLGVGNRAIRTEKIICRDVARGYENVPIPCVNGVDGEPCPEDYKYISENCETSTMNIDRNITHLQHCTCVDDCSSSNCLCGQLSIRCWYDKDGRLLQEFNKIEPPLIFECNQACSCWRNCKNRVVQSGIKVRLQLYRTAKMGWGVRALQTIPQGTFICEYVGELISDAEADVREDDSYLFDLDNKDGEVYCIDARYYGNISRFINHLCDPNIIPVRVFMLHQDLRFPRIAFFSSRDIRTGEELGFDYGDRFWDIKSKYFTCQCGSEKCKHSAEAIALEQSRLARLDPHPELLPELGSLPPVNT
UniProt Q13011: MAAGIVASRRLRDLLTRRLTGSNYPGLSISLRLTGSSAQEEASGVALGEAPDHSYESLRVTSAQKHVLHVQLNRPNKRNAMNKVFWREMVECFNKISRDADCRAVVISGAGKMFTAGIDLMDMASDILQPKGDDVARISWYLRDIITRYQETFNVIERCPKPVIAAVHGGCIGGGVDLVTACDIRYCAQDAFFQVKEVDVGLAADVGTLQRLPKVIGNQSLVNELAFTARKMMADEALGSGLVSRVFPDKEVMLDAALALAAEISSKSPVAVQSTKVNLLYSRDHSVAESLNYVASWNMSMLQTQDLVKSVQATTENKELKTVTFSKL
UniProt Q15029: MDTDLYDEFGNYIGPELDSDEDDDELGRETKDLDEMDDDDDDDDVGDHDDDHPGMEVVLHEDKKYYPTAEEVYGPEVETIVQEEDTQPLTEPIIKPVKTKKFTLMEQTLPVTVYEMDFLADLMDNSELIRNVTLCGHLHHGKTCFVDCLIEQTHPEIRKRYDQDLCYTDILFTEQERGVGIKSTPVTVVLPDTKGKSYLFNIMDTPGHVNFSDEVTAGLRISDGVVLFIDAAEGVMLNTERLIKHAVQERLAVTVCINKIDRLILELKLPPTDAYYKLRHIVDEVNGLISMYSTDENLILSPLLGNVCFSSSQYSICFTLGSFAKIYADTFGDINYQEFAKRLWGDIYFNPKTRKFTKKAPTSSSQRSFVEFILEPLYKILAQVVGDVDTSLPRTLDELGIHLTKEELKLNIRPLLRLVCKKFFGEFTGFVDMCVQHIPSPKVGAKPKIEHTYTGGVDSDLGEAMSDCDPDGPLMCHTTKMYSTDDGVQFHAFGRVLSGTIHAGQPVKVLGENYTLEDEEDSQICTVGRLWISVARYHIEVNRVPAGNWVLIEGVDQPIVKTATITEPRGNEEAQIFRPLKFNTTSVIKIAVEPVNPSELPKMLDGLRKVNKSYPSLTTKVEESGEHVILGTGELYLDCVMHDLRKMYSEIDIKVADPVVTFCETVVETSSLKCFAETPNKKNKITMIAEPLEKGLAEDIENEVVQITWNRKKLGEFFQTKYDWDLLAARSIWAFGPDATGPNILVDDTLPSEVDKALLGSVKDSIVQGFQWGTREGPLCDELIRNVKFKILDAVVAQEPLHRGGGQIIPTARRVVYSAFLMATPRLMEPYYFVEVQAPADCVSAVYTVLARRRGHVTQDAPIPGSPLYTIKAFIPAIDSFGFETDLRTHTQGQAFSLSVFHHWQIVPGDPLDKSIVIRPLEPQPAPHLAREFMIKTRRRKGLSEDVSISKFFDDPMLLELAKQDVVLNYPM
UniProt P19525: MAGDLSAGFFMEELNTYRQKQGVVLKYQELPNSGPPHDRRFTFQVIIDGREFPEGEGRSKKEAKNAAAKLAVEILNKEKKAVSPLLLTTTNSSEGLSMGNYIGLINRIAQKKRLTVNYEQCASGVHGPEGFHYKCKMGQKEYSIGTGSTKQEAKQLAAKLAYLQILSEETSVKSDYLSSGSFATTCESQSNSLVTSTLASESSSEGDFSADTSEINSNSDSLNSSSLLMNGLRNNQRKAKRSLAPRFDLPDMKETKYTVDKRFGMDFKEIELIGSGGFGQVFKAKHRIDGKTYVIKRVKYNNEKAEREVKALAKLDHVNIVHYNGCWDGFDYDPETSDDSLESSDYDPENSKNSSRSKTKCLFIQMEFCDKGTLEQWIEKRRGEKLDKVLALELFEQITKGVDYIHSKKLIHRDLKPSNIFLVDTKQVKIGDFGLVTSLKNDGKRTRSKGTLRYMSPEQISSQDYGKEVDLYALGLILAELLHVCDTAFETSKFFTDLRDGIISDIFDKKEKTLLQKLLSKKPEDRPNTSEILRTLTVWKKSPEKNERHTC
UniProt Q96C19: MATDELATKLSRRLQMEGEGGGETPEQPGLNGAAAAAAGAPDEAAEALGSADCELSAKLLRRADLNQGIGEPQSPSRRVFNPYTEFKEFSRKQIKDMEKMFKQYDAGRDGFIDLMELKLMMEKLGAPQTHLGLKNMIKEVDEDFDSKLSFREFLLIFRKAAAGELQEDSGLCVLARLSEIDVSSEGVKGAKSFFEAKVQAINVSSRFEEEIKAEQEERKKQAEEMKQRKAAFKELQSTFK
UniProt P30084: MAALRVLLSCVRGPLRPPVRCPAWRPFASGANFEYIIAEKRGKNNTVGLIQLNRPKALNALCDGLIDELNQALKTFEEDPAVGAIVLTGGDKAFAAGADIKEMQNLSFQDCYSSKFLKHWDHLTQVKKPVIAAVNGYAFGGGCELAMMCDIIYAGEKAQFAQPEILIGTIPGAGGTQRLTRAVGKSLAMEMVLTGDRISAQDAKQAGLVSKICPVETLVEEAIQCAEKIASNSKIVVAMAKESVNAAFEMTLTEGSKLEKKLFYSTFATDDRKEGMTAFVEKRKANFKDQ
UniProt P41091, whole entry, looked up: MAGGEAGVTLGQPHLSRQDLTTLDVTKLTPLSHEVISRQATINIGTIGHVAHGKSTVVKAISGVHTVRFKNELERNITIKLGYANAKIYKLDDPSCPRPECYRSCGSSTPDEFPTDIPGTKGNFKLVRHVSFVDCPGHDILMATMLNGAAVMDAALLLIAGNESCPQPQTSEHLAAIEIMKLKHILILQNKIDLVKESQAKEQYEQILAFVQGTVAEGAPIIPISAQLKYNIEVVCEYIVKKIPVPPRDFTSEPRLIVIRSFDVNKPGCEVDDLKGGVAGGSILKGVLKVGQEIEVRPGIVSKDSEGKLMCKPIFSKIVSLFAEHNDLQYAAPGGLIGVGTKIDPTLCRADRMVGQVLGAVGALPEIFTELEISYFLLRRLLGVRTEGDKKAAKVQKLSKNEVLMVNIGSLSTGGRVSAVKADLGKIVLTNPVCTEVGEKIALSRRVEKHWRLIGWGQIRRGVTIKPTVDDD
UniProt Q14232, whole entry, looked up: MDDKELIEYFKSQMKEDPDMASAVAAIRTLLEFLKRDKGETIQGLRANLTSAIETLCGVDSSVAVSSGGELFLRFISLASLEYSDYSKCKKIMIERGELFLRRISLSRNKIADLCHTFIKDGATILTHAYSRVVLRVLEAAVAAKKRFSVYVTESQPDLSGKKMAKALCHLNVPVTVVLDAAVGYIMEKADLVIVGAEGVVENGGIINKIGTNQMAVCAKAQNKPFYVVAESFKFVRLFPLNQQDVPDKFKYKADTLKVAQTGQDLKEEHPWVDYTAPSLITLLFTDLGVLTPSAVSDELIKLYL
UniProt P05198, whole entry, looked up: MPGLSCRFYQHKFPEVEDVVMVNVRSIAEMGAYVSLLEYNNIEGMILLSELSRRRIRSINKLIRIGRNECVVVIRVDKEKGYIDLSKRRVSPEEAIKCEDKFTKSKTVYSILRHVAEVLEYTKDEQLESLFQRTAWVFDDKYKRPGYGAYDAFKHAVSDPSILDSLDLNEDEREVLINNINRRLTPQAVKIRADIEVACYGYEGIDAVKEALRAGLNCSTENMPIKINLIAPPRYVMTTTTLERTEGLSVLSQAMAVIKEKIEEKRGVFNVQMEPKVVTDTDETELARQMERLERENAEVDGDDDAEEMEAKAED

Compound: CC1Cc2ccccc2N1C(=O)C1CCCN(C1)C(=O)CCl (mixture of isomers) [TRIM25 ligand 11 (diastereomer mixture)]
Experiment: probe-labelled cysteine peptide fold change vs DMSO (competition) (log2 fold change); higher = less target engagement (more negative = stronger competition)
Conditions: THP-1, incubation time: 4 h
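Note: competitive chemoproteomic profiling in live THP-1 cells with an iodoacetamide desthiobiotin (IA-DTB) probe, comparing probe-labelled peptide intensities in compound-treated cells against DMSO-treated controls.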

| Target | probe-labelled cysteine peptide fold change (10 µM) | probe-labelled cysteine peptide fold change (50 µM) |
| --- | --- | --- |
| EFNB1_P98172_89+101_LYLVRPEQAAACSTVLDPNVLVTCNRPEQEIR (UniProt P98172) | 0.0237 | -0.0576 |
| EHMT2_Q96KQ7_985_NITHLQHCTCVDDCSSSNCLCGQLSIR (UniProt Q96KQ7) | -0.14 | -0.237 |
| ECH1_Q13011_182_PVIAAVHGGCIGGGVDLVTACDIR (UniProt Q13011) | 0.101 | 0.132 |
| EEF1A1_P68104_370_GNVAGDSKNDPPMEAAGFTAQVIILNHPGQISAGYAPVLDCHTAHIACK (UniProt P68104) | -0.346 | -0.402 |
| EFTUD2_Q15029_144+148_TCFVDCLIEQTHPEIR (UniProt Q15029) | -0.043 | -0.0748 |
| EIF2AK2_P19525_369_CLFIQMEFCDK (UniProt P19525) | -0.0113 | 0.000931 |
| EEF2_P13639_536_SDPMVQCIIEESGEHIIAGAGELHLEICLK (UniProt P13639) | 0.00077 | -0.00894 |
| EFHD2_Q96C19_172_AAAGELQEDSGLCVLAR (UniProt Q96C19) | -0.0761 | -0.204 |
| ECHS1_P30084_111_EMQNLSFQDCYSSK (UniProt P30084) | -0.266 | -0.158 |
| EIF2S3_P41091_105_SCGSSTPDEFPTDIPGTK (UniProt P41091) | 0.0576 | 0.0359 |
| EIF2B1_Q14232_218_IGTNQMAVCAK (UniProt Q14232) | -0.0309 | -0.136 |
| EIF2S1_P05198_218_AGLNCSTENMPIK (UniProt P05198) | -0.0983 | -0.174 |
| EEF2_P13639_567_DLEEDHACIPIK (UniProt P13639) | 0.088 | -0.099 |

Single records, as listed above:
EFTUD2_Q15029_144+148_TCFVDCLIEQTHPEIR (UniProt Q15029) in the list: probe-labelled cysteine peptide fold change (10 µM): -0.043; probe-labelled cysteine peptide fold change (50 µM): -0.0748
EHMT2_Q96KQ7_985_NITHLQHCTCVDDCSSSNCLCGQLSIR (UniProt Q96KQ7) in the list: probe-labelled cysteine peptide fold change (10 µM): -0.14; probe-labelled cysteine peptide fold change (50 µM): -0.237
